Positions count from the first letter of the chain named. For part of these data: Negatives hold for the conditions tested. For part of these data: At least one verdict rests on a figure or table, not on a statement of the authors. For part of these data: For at least one entry, the source does not settle the construct or the ends of the probe. For part of these data: Protein sequences can lack the tags named with them. For part of these data: The direction of at least one scale is not stated here. A value given as a limit tells only on which side of the number the result lay.

Protein sequences, listed by entry. Tags and fused reporters are not part of them. Residues count along the entry.
UniProt P02769, 25-607: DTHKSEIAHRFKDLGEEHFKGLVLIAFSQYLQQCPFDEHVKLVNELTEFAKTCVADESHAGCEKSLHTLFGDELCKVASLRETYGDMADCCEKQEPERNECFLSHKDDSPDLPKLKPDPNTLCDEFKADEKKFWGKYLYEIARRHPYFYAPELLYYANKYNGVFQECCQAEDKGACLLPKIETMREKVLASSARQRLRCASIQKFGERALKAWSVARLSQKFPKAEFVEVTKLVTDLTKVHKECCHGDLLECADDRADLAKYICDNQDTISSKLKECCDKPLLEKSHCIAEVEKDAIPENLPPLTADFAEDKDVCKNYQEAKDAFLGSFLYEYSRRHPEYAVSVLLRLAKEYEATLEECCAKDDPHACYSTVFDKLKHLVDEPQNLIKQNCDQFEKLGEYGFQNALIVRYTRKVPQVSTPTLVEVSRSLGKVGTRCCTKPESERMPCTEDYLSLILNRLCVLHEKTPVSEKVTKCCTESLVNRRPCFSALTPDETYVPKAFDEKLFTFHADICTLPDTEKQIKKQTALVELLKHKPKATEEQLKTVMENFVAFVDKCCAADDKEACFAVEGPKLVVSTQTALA

Assay in all cases: MST
Data set [1] deals with T1, NrdR (Streptomyces coelicolor M145) (UniProt O69980).
T1 sequence (looked up, limits assumed): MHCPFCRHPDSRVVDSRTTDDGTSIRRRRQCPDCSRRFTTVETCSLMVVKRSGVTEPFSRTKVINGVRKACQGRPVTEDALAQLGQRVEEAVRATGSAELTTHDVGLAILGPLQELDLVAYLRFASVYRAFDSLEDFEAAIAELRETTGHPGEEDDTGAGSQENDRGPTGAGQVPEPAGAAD
The settings on record: MST: 25 mM Tris-HCl pH 7.6, 150 mM NaCl, 10 mM MgCl2, 5% glycerol, 1 mM DTT, 0.05% Tween-20, nucleotides 1 mM each, 10 nM Cy5-dsDNA, room temperature, recombinant protein, protein details: C-terminal His6 (pET30a); for binding signal (fold lower affinity than wild-type DNA): 1 mM dATP + 1 mM ATP.

The target of data set [2] is T2, NrdR D15A (Streptomyces coelicolor M145) (UniProt O69980).
T2 sequence (looked up, limits assumed): T1 sequence (looked up, limits assumed) with D15A
Particulars: 1 mM dATP + 1 mM ATP, 10- to 100-fold stronger than wild-type NrdR on mutant DNAs; MST: 25 mM Tris-HCl pH 7.6, 150 mM NaCl, 10 mM MgCl2, 5% glycerol, 1 mM DTT, 0.05% Tween-20, nucleotides 1 mM each, 10 nM Cy5-dsDNA, room temperature; recombinant protein; protein details: C-terminal His6 (pET30a); label: 5'-Cy5 on sense strand.

Data set [3] has as its target T3, NrdR R17A (Streptomyces coelicolor M145) (UniProt O69980).
T3 sequence (looked up, limits assumed): T1 sequence (looked up, limits assumed) with R17A
The settings on record: 1 mM dATP + 1 mM ATP; MST: 25 mM Tris-HCl pH 7.6, 150 mM NaCl, 10 mM MgCl2, 5% glycerol, 1 mM DTT, 0.05% Tween-20, nucleotides 1 mM each, 10 nM Cy5-dsDNA, room temperature; recombinant protein; protein details: C-terminal His6 (pET30a); label: 5'-Cy5 on sense strand.

The target of a further data set is BSA (UniProt P02769). The settings on record: ATP + dATP; MST: 25 mM Tris-HCl pH 7.6, 150 mM NaCl, 10 mM MgCl2, 5% glycerol, 1 mM DTT, 0.05% Tween-20, nucleotides 1 mM each, 10 nM Cy5-dsDNA, room temperature; commercial protein; label: 5'-Cy5 on sense strand.

As to “GCCAATCCCCACATCTAGTGGTTGGATAGCGTGAGCAGCTCACAAGTTTTGGTCCCC (double strand) [nrdRJ T9/T18]”, the binding signal (fold lower affinity than wild-type DNA) in data set [1] (label: 5'-Cy5 on sense strand) is > 100. The binding result in data set [2] is “binds”; in data set [3] it was “no binding”.

In the case of “GCCAATCCTCACATCTATTGGTTGGATAGCGTGAGCAGCTCACAAGTTTTGGTCCCC (double strand) [nrdRJ T9/T18/T40/T49]”, in data set [1] (label: 5'-Cy5 on sense strand), the binding signal (fold lower affinity than wild-type DNA) was > 100. Further, in data set [2], the binding result is “binds”.

As to “CCGGGACACAACATCTGGGGGTGCTCGCGTCCCCCGGCACAAGATGTATGCTCATGC (double strand) [nrdAB promoter 57 bp]”, the binding result in the data set with BSA is “no binding”. The Kd in data set [1] (ADP + ATP (fit 18.96 uM), label: 5'-Cy5 on sense strand) is > 10 µM; in data set [1] (AMP only, no plateau, judged non-specific, label: 5'-Cy5 on sense strand) it was 5.39 µM; in data set [1] (ATP + dAMP, no plateau, judged non-specific, label: 5'-Cy5 on sense strand) it was 9.37 µM; in data set [1] (cyclic di-AMP only, no plateau, judged non-specific, label: 5'-Cy5 on sense strand), 6.68 µM; in data set [1] (dADP + ADP (fit 10.65 uM), label: 5'-Cy5 on sense strand), > 10 µM; in data set [1] (dADP + ATP (fit 96 uM), label: 5'-Cy5 on sense strand) it was > 19 µM. Further, the Kd in data set [1] (dADP only (fit 10.2 uM), label: 5'-Cy5 on sense strand) was > 10 µM; in data set [1] (dAMP only, no plateau, judged non-specific, label: 5'-Cy5 on sense strand) it was 4.07 µM; in data set [1] (dATP only (fit 11.2 uM, biphasic), label: 5'-Cy5 on sense strand), > 10 µM; in data set [1] (no nucleotide (fit 11.3 uM, no plateau), label: 5'-Cy5 on sense strand), > 10 µM.

Consider “GCCAATCCGCACATCTACTGGTTGGATAGCGTGAGCAGCCCACAAGTTGTGGTCCCC (double strand) [nrdRJ G9/C18]”, for which the binding result in data set [2] is “binds”.

As for “CCGGGACACAACATCTGGGGGTGCTCGCGTCCCCCGGCACAAGATGTATGCTCATGC (double strand) [nrdAB promoter 57 bp, Cy5 antisense]”, the Kd in data set [1] (dATP only (fit 78 uM), label: 5'-Cy5 on antisense strand) is > 19 µM.

Consider “GCCAATCCCCACATCTACTGGTTGGATAGCGTGAGCAGCCCACAAGTTCTGGTCCCC (double strand) [nrdRJ C18/C49]”, for which the binding result in data set [2] is given as “binds”.

On to “GCCAATCCCCACATCTAGTGGTTGGATAGCGTGAGCAGCCCACAAGTTGTGGTCCCC (double strand) [nrdRJ promoter 57 bp]”, for which the Kd in data set [1] (cyclic di-AMP + ATP (fit 21.6 uM, oligo nrdRJ by file order), label: 5'-Cy5 on sense strand) is > 19 µM; in data set [1] (no nucleotide (fit 29.3 uM), label: 5'-Cy5 on sense strand) it was > 19 µM.

Take “GCCAATCCTCACATCTATTGGTTGGATAGCGTGAGCAGCCCACAAGTTGTGGTCCCC (double strand) [nrdRJ T40/T49]”: the binding signal (fold lower affinity than wild-type DNA) in data set [1] (label: 5'-Cy5 on sense strand) is > 100. The binding result in data set [2] is listed as “binds”; in data set [3], “no binding”.

These data come from paper PMC9110341, “A nucleotide-sensing oligomerization mechanism that controls NrdR-dependent transcription of ribonucleotide reductases” (Nature Communications, 2022).
